102 sequences from PubChem BioAssay AID1347423 (Functional Genomics Laboratory (NCATS/FGL), 2020) can be followed below.

In all, about 52,000 sequences went through this assay and about 210 (0.4%) were called active.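 Rule for the calls: active = gene whose silencing raises cell survival under the drug, median off-target-corrected z-score across its silencing RNAs 2 or more; inactive = the rest.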 Some of the results follow.

A short description of this assay: Resistance to Poly (ADP-Ribose) Polymerase inhibitor: Gene Identification via Genome-wide siRNA Screen. The following applies: mouse BRCA2 R2336H ES cells, olaparib, CellTiter-Glo viability; hits give high values. In outline:
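Genome-wide siRNA screen (3 siRNAs/gene, 20 nM) in mouse ES cells carrying hypomorphic BRCA2 R2336H; olaparib 500 nM added 48 h post-transfection, CellTiter-Glo viability 72 h later. Normalized to plate-median negative control; MAD z-scores, gene median, seed-adjusted.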
A general note: In ATP-based viability assays light output follows the ATP content of the culture.
As for GGCUUAGUCAGUUCUCUCGTT against Sdf2, the z-score is inactive: 1.18.
The result for CGGCCUCCAUGUUAAGAUATT against Csf2rb2 reads inactive: 0.645; that for GCUCACUGCUACAAAUACCTT against Prss2, inactive: 0.0149.
In the case of GGAAACAUUUGUCUUUUGCTT against Eif2b5 it was inactive: -0.841.
In the case of CCUCACCGUAGUGAUGUUGTT against Olfr257 it was inactive: -2.92.
As for “CCCAGGUAGUAUACAAGGUTT against 2010005A06Rik”, the z-score was inactive: 2.12.
For GGAACUAUUUUUUACCCAATT against Dclre1a, the z-score was inactive: 1.78.
The result for GGGUACAAGUGCUGAAAAATT against Tcfcp2l2 reads inactive: -0.913; that for “GGCAUUCUCAAGAAAAAGUTT against 1200013B22Rik”, inactive: -1.25.
In the case of GCCGUGCAACACUUCUACATT against Esrrb it was inactive: 1.71; in that of “GCGAGUUUAAAAGCACACUTT against 2310079F23Rik”, inactive: 1.26; in that of GGAAGAGGACCAAAGUGCUTT against BC027342, inactive: 0.0991.
In the case of GGGAAAUCAGUUUUACAAATT against Chl1 it was active: 2.76; in that of GGUCUUACAUCUGGUUUCCTT against Rapgef5, inactive: 1.04; in that of GGGUUCACGAAAGAGUAAATT against Clcn5, inactive: -1.45.
Turning to “GCUAAGUGCUCGAAUCCGATT against 1810031K17Rik”, the z-score is inactive: -0.121.
The result for “CCACAGUCGCUUUCUUUUATT against A830093I24Rik” reads inactive: 0.39; that for GACCAGUGACAAGACCAUCTT against Cmya4, inactive: 1.74; that for GGUUAUUCAUAUGGAACUGTT against Mapk9, inactive: 0.32.
The result for GGGCUGCUUUAAUAAAGAUTT against Pycr2 reads inactive: -0.367.
Regarding CCCACGGAGGCAAUAAAUATT against Crygn, the z-score is inactive: 0.243.
In the case of GGCCUUACAACAAAAUCUGTT against Chd9 it was inactive: 0.447; in that of “GGUACUGAGCUUGAUUGUATT against 4732482E20Rik”, inactive: -1.42; in that of GGUGUCCACGGUGGUUUGATT against Pfn1, inactive: -1.41.
The result for CCGUGAAAAUCAGUAAUUATT against Cacybp reads inactive: -0.903; that for UUGAAAUGCCUCGUUCUUUTT against Wfdc13l1, inactive: -0.48; that for CGAAGUUUUGUUGAAAAGCTT against Rhobtb3, inactive: -0.672.
The result for GGUCCCUGAGGAUUUCAUCTT against Tusc4 reads inactive: -0.991.
For the sequence GGUGAAUAUACUGUAAUGATT against Gabra2, the z-score was inactive: -0.484.
As to GGAGAACCUGAGCUAUGAUTT against Hsp105, the z-score is inactive: -1.42.
In the case of GCACAUCGGCCUUAAGUCATT against Supt4h it was inactive: -0.695.
Regarding “GCCGUUAUUGCAUUUGGACTT against 6330415F13Rik”, the z-score was inactive: -0.0926.
Regarding CCAAUCUCUACCGUCUCCUTT against Camp, the z-score was inactive: -0.0705.
In the case of CCUACUUAGUCCAGUUUAATT against Olfr735 it was inactive: -0.187; in that of CCUCUUCAGCUUACAGUGGTT against Fjx1, inactive: -0.588; in that of GGGAAAAGAGAGUGGUGUATT against Rab27a, inactive: -0.7.
With GUGGUCUUUAGUGGUGCUCTT against Mata2, the z-score was inactive: 4.01.
In the case of GCUUAUAGAUCAGAUAGGATT against Cd244 it was inactive: 0.459; in that of GGAAUCAGCUCUUUGAGCGTT against Capn5, inactive: -1.05; in that of GGCCUUAAUUUAGUUGGUATT against Fbxo2, inactive: 0.189.
As for “GGUUAUUCAUUCAAAAUGGTT against 2810421I24Rik”, the z-score is inactive: 0.533.
The result for GGUUCUACAGAUGUUUUCUTT against Tnfrsf22 reads inactive: -0.928; that for GGCAGCGCAAUGGAUUAGUTT against Chrng, active: 1.99.
As to “GGCUGUUACAACAAAGGAATT against 2700022J23Rik”, the z-score was inactive: -0.726.
The result for GCAUAGUGACCAUGGAUAATT against Olfr807 reads inactive: -1.12; that for GGCAGUCAACAAAGAAGACTT against Metapl1, inactive: -1.74; that for GCUGUGUACUCUGCCUUGUTT against Olfr338, inactive: -0.374.
For the sequence GGAGACCUUCAGCUUGGAATT against Zfp260, the z-score was inactive: -2.48.
The result for “GCUCCUAAGUAAAAUGGUATT against 2010109K11Rik” reads inactive: 0.301; that for “GCGAUUCUUGAUAAAGAGGTT against 4933413G11Rik”, inactive: 0.013; that for “GGCUCUGUGCUUAAGAUGATT against D130038B21Rik”, inactive: 0.743.
In the case of GGGAUUUCAAAUAAUUUGCTT against Nudt4 it was inactive: 1.24; in that of GGCCUUGUGUUUAGAAAACTT against Piwil2, inactive: 0.131.
The result for GGAAACACCGGAAAUAAUCTT against Akap12 reads inactive: 1.72; that for GGAGAACUUCAGUGAGUCCTT against Ambp, inactive: 0.895; that for GGAGAGACUCAGGAGUUUUTT against Rohn, inactive: -0.479.
For the sequence CGGAUCUUAUCAGAACAUGTT against Zfml, the z-score was inactive: -1.35.
In the case of “GGCCAACCAAGUCUUCUGATT against 2310031L18Rik” it was inactive: 1.43.
GGUGUGGUCUAUGACACGUTT against Hdac5: the z-score is inactive: -0.538.
The result for “GGAGUUGACGAAGAUAUGATT against 1110014D18Rik” reads inactive: 2.22; that for GCAUCCUAUAAUAUGCAUGTT against Pcdh21, inactive: 0.192.
The result for “CCAGUGUUCCCUACUACGUTT against 1810009M01Rik” reads inactive: 0.706.
In the case of “GGGAGUUCCAAUCAUUCUUTT against 2200002J24Rik” it was inactive: -0.178; in that of CCUGGUCACUCCAAACCCATT against BC055757, inactive: 0.651.
Turning to GGCAGUGGAUGUACAAAAATT against Sh3bgrl2, the z-score is inactive: 0.0662.
In the case of “GGCUGACGAAUGACAGUUGTT against 3110023G01Rik” it was inactive: -1.63; in that of GGAGUCAGGGCUGAUACAUTT against Lpin3, inactive: -1.85.
In the case of “GGAACCUGAUUGACUUGGATT against 9330187M14Rik” it was inactive: -0.444; in that of GGAAGAGAAGUAUUGAGGATT against Pdgfa, inactive: -0.725.
In the case of CCUCAUCGUAAGAGACAUATT against Arhgef2 it was inactive: 0.0141; in that of CCAACAGAACAAUCUGCAUTT against Olfr672, inactive: -1.34.
On to GGUCAUUCAUAAGCUCCUGTT against Ncf1, for which the z-score was inactive: -0.641.
As to GGUAAAGAGGGAAGAGAUCTT against Akr1d1, the z-score is inactive: 0.819.
In the case of GGAAUUUUUUUCUUCGAUCTT against Sema3a it was inactive: -0.0189.
The result for “GCACCCUACCUGCUAAUGUTT against 3200001I04Rik” reads inactive: -2.38; that for GGGAAUGAAUGCUUUACAUTT against Aspn, inactive: -0.599; that for “GGAGCUGUCCCAAGAAAUCTT against 1110055N21Rik”, inactive: 0.0557.
The result for CCUCAUUAGCAACCAAAAGTT against Spnb4 reads inactive: -1.32; that for GGCCAUGGUUAAACCAUAUTT against Pdcl2, inactive: 2.94; that for GGCUAUCUUUUCAGCUUUATT against Sox30, inactive: -0.0211.
“GGGACUUGCCAGAAGAUGCTT against 4921504I05Rik”: the z-score was inactive: 0.643.
The result for “CCAACCCUCCAUCAAAGAATT against 2610207P08Rik” reads inactive: 0.689; that for “GCCUUGGACUACUUUACACTT against 1810061M12Rik”, inactive: 1.01; that for GGAGCAGACAUCAGAAAGCTT against Nalp5, inactive: -1.95.
In the case of GCCAAGUGAUUGAAAAAACTT against Lnp it was inactive: -0.698.
As to “ACUUCACGAUGGAAAAAUUTT against 1700049E17Rik”, the z-score was inactive: -2.16.
In the case of “GGCAUCAUAAAGCCAGGCATT against 5730410E15Rik” it was inactive: 0.097.
In the case of “GCAGCAUGUGAAAAGAAGGTT against 2010003K11Rik” it was inactive: -1.41; in that of GGCACUUUAGUCUUUUCUCTT against Zfp296, inactive: -0.539; in that of GGCCAAUCAAGAGUAGUAUTT against Fgb, inactive: 0.812.
In the case of “GGAGUUUGUUGGAGCCAUUTT against 9030205A07”, the z-score is inactive: -1.88.
Regarding GGGACGAAUUCAGCAAUUUTT against Pcdha6, the z-score is inactive: -0.00782.
In the case of GGACUUGUCCAGCAUUGUATT against Donson it was inactive: -1.45; in that of “GGUGUUGUGAAGUGUCAAATT against 2900024C23Rik”, inactive: -1.23; in that of CCAAUUCUCGAAUCAUUGCTT against Olfr561, inactive: -0.382.
The result for “GGCUGAAAAAUUUCAUGAUTT against 1110013G13Rik” reads inactive: 0.146; that for GGCUAUUUGAGAACAGGCATT against Cxcl13, inactive: -0.0052; that for GGCCAAUAAAGACUGGUUUTT against Rps15, inactive: -2.32.
On to UAACUGGGCUCACGUUGACTT against Pou2f1, for which the z-score was inactive: -0.778.
In the case of GGACGUGACAGACAUUAUUTT against Htr5b it was inactive: -0.897; in that of “GGAGAAAGAAAGCAGUUUUTT against 2310067E19Rik”, inactive: 0.223; in that of ACUGGGUUCUUAGUUGUAUTT against Olfr811, inactive: -0.381.
